Data: doi:10.1101/2023.03.07.531564

By UniProt entry, the sequences of proteins in these tests, tags left out.
UniProt Q9EPK5: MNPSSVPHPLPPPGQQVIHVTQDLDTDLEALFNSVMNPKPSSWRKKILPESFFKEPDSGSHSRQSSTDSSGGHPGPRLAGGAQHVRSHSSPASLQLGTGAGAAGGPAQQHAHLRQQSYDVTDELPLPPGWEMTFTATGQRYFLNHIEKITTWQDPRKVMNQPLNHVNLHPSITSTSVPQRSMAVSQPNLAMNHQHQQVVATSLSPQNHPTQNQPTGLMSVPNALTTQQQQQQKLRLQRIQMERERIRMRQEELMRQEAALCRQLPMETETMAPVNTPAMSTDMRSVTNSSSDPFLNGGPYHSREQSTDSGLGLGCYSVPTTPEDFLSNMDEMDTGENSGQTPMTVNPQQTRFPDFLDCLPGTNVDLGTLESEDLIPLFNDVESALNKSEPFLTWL
UniProt P46938: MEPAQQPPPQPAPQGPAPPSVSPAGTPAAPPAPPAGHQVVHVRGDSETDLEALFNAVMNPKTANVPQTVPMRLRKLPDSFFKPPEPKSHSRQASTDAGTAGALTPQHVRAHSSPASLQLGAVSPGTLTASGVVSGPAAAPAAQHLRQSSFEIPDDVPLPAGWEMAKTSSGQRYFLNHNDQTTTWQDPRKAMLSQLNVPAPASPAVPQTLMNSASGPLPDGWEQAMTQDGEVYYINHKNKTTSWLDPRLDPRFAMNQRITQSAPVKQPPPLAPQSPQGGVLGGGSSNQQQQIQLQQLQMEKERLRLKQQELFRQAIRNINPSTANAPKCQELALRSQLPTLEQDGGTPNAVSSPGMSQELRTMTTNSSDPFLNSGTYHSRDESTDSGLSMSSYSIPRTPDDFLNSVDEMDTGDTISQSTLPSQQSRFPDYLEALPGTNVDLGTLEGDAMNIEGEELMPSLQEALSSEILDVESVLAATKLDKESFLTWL

Tests used:
[1] = biological target: 3xFLAG.TAZ (flagged mouse Taz, WW-domain-containing transcription regulator 1) (mouse) (UniProt Q9EPK5); assay: affinity purification with mass spectrometry
[2] = biological target: 3xFLAG.YAP (flagged mouse Yap, Yes-associated protein) (mouse) (UniProt P46938); assay: affinity purification with mass spectrometry

Binder | binding [1] | binding [2]
NUP107 (protein, UniProt Q8BH74 1-926) MDRSGFGGMSSPVIRDAEVTRTARKHSAHKRVLIQANQEDNFGTATPRSQIIPRTPSSFRQPFVTPSSRSLLRHPDISYILGTEGRSPRHTQSSGYLGNLSMVTNLDDSNWAAAFSSQRLGLYTNTEHHSMTEDVNLSTVMLREDDPGEAASMSMFSDFLHSFLKHSSTTVFDLVEEYENICGSQVNILSKIVSRATPGLQKFSKTASMLWLLQQEMVTWRLLASLYRDRIQSSLEEENMFAIAGINASEKMVVETLFQRDSLVRQSQLVVDWLESIAKDEIGEFSDNIEFYAKSVYWENTLHSLKQRQLLSHMGSTRPLVTELDPDAPIRQKLPLDDLDREDEVRLLKYLFTLIRAGMTEEAQRLCKRCGQAWRAATLEGWKLYHDPNVNGGTELEPVEGNPYRRIWKISCWRMAEDELFNKYERAIYAALSGNLKQLLPVCDTWEDTVWAYFRVMVDSLVEQEIRTSVMTQDDSEELPREYMEANWTLEKVFEELQATDKKRVLEENQEHYHIVQKFLILGDVDGLMDEFSKWLSKSGSSLPGHLLRFMTHLILFLRTLGLQTKEEVSIEVLKTYIQLLISEKHTSLIAFYTCHLPQDLAVAQYALFLEGVTEFEQRHQCLELAKEADLDVATITKTVVENICKKDNGEFSHHDLAPSLDTGTTEEDRLKIDVIDWLVFDPAQRAEALRQGNAIMRKFLALKKHEAAKEVFVKIPQDSIAEIYNQWEEQGMESPLPAEDDNAIREHLCIRAYLEAHETFNEWFKHMNSAPQKPTLLSQATFTEKVAYEHREKKYEMDHNIWKGHLDALTADVKEKMYNVLLFVDGGWMVDVREDAEDDPERTHQMVLLRKLCLPMLCFLLHTILHSTGQYQECLQLADMVSSERHKLYLVFSKEELRKLLQKLRESSLMLLDQGLDPLGYEIQS | binds | 
large tumor suppressor kinase 1 (Lats1) (protein, UniProt Q8BYR2 1-1129) MKRGEKPEGYRQMRPKTFPASNYPGSSRQMLQEIRESLRNLSKPSDASKAEHNLNKMSTEDPRQVRNPPKFGTHHKALQEIRNSLLPFANETSSSRSPSEVNPQMFQDLQAAGFDEDMVIQALQKTNNRSIEAAVEFISKMSYQDPRREQMSAAAARPINATMKPGNVQHSINRKQSWKGSKESLVPQRHGPSLGENVVYRSESPNSQADVGRPLSGSGIAAFAQAHPSNGQRVNPPPPPQVRSVTPPPPPRGQTPPPRGTTPPPPSWEPSSQTKRYSGNMEYVISRISPVPPGAWQEGYPPPPLTTSPMNPPSQAQRAISSVPVGRQPIIMQSTSKFNFTPGRPGVQNGGGQSDFIVHQNVPTGSVTRQPPPPYPLTPANGQSPSALQTGASAAPPSFANGNVPQSMMVPNRNSHNMELYNINVPGLQTAWPQSSSAPAQSSPSGGHEIPTWQPNIPVRSNSFNNPLGSRASHSANSQPSATTVTAITPAPIQQPVKSMRVLKPELQTALAPTHPSWMPQPVQTVQPTPFSEGTASSVPVIPPVAEAPSYQGPPPPYPKHLLHQNPSVPPYESVSKPCKDEQPSLPKEDDSEKSADSGDSGDKEKKQITTSPITVRKNKKDEERRESRIQSYSPQAFKFFMEQHVENVLKSHQQRLHRKKQLENEMMRVGLSQDAQDQMRKMLCQKESNYIRLKRAKMDKSMFVKIKTLGIGAFGEVCLARKVDTKALYATKTLRKKDVLLRNQVAHVKAERDILAEADNEWVVRLYYSFQDKDNLYFVMDYIPGGDMMSLLIRMGIFPENLARFYIAELTCAVESVHKMGFIHRDIKPDNILIDRDGHIKLTDFGLCTGFRWTHDSKYYQSGDHPRQDSMDFSNEWGDPSNCRCGDRLKPLERRAARQHQRCLAHSLVGTPNYIAPEVLLRTGYTQLCDWWSVGVILFEMLVGQPPFLAQTPLETQMKVINWQTSLHIPPQAKLSPEASDLIIKLCRGPEDRLGKNGADEIKAHPFFKTIDFSSDLRQQSASYIPKITHPTDTSNFDPVDPDKLWSDGSEEENISDTLNGWYKNGKHPEHAFYEFTFRRFFDDNGYPYNYPKPIEYEYIHSQGSEQQSDEDDQHTSSDGNNRDLVYV | binds | 
NUP133 (protein, UniProt Q8R0G9 1-1155) MFPSVSSPRTPGPGTRRGPLVGIGPTSTPRASRRGLSLGSAVNSPVLFSPAGRRSSVSSRGTPTRIFPHHSISESVNYDVRVFGSSLPVKIMEALTMAEADEQLSVHVDEGGWACLVCTEKLLIWKIAVSPVTKLSVCKELQLPPSDFHGSADLVALSYAATSGEVHSVQAVSVMVATKEGSIRYWPSLAREDTYSDTCVDLGGEKMCRFLTAVQGGSFILSSVGSQLVRLIPESSGKIHQHVLPQGQGMLSGIGRRVSSLFGILSPTSDLMLASVLWDRGGSSFYTLTSSNISKWELDDSSEKQVHSWDVHRTLKESITDAVWGSESNYEAIKEGVNIQYLDLKQNCDGLLILAAAWHLGDSPCLVYYSVITVEDNGNQMSDAVTVEVTQYNPPFQSEDLIACRLMVPNFSSQMTYLYMENAVFVCSTGTGKFSLPQEKIVFDTQGDGILGAGSCAGVPILFSRNSGLVSVTPRENVSLLAEDLEESLTSSVGGRGSESMVFETTTKNETVAHEDKTKLLKAAFLQYCRKDLGRAQIMADELFSSHTDLDSDPELDKAVTQISVDLIDDYPASDPRWAESVPQEAPGLSNTSLIILHQLEDKMKAHCLLVDFLHQVGLFRRLSSYPIRGTPMSTRLLLCEHAEKLSAAITLKNHHSRLPDLVNSAILLALNKRECEVPNSLTPADVFFREVSQVDTICECLLEHEEQVLREVALVSQEWAEVAIDVNTVLKDMLQAATHYRLNKSSMYSQEEVLGKEPEYVPWTATSGPSGIRTAVMRQHGIILKMVYPQADSKLRNVVMEQLVALIDCFLDSYVSQLKSLEKSSDQERYSSLEVEYLQKRSELLSPLLTLGQYPWAASLAEKYCDFDILVQMCEQTDNQARLQRYMTQFADQNFSDFLFRWYLEKGKRGKLLSQPISQHGQLANFLQAHEHLSWLHEINSQELEKAHTTLLGLANMETRYFAKKKTLLGLSKLAALASDISEDRLQEKIEAMAEQERFLLHQETLPEQLLTERQLSLSAMPVLTAPQLISLYICDENRRANEYDFKKALDLLEYIDEEEDVSIDDLKLEILCRALQRDDWSGSDGKDDPIEVSKDSVFVKILQKLIKDGIQLSEYLPEVTDLLRAEQLGSLKSNSYFEFVLKANYEYYVQGQM | binds | binds
XPO5 (protein, UniProt Q924C1 1-1204) MEMEQVNALCEELVKAVTVMMDPSSTQRYRLEALKFCEEFKEKCPICVPCGLKLAEKTQIAIVRHFGLQILEHVVKFRWNSMSRLEKVYLKNSVMELIANGTLRILEEENHIKDVLSRIVVEMIKREWPQHWPDMLMELDTLFRQGETQRELVMFILLRLAEDVVTFQTLPTQRRRDIQQTLTQNMERILNFLLNTLQENVNKYQQMKTDSSQEAEAQANCRVSVAALNTLAGYIDWVSLNHITAENCKLVETLCLLLNEQELQLGAAECLLIAVSRKGKLEDRKRLMILFGDVAMHYILSAAQTADGGGLVEKHYLFLKRLCQVLCALGNLLCALLALDANIQTPINFGMYLESFLAFTTHPSQFLRSSTHMTWGALFRHEVLSRDPALLAVIPKYLRASMTNLVKMGFPSKTDSPSCEYSRFDFDSDEDFNAFFNSSRAQHGEVVRCVCRLDPKTSFQMAAEWLKYQLSASIDTGPVNSCSTAGTGEGGFCSIFSPSYVQWEAMTFFLESVINQMFRTLDKEELPVSDGIELLQLVLNFEIKDPLVLSCVLTNVSALFPFVTYKPAFLPQVFSKLFSFVTFESVGESKAPRTRAVRNVRRHACSSINKMCRDYPDLVLPNFDMLYSHVKQLLSNELLLTQMEKCALMEALVLVSNQFKDYERQKLFLEELMAPVVNIWLSEEMCRALSDIDSFIAYVGADLKSCDPAVEDPCGLNRARMSFCVYSILGVMRRTSWPSDLEEAKAGGFVVGYTPSGNPIFRNPCTEQILRLLDNLLALVRTHNTLYTPEMLTKMAEPFTKALDIVESEKTAILGLPQPLLEFNDHPVYRTTLERMQRFFGILYENCYHILGKAGPSMQQDFYTVEDLASQLLGSAFVNLNNIPDFRLRSMLRVFVKPLVLFCPSEHYETLISPILGPLFTYLHMRLSQKWHVINQRSILCGEDEIAEDNPESQEMLEEQLVRMLTREAMDLIMACCVSKKTADHTAAPTADGDDEEMMATEVAPSSVVELTDLGKCLMKHEDVCTALLITAFNSLTWKDTLSCQRATTQLCWPLLKQVMSGTLLADAVTWLFTSVLKGLQMHGQHDGCMASLVHLAFQIYEALRPRYLEIRAVMEQIPEINKESLDQFDCKLLNPSLQKAADKRRKDHFKRLIAGCIGKPLGEQFRKEVHIKNLPWLFKKPKPMLETEVLDSEEGGLATIFEP | binds | binds

Results are given in words; binding and its absence hold for the method and conditions named. In cells and extracts the contact can be indirect. A yes stands for co-enrichment or nearness to the bait. Other partners may have been found.
